# Data from article PMC11389452.
# Protein sequences, listed by entry. Tags and fused reporters are not part of them.
# UniProt O15392: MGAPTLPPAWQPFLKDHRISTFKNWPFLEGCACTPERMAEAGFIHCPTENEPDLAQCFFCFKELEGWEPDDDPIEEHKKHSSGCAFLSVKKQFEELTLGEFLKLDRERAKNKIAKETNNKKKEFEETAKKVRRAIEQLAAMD
# UniProt Q92785: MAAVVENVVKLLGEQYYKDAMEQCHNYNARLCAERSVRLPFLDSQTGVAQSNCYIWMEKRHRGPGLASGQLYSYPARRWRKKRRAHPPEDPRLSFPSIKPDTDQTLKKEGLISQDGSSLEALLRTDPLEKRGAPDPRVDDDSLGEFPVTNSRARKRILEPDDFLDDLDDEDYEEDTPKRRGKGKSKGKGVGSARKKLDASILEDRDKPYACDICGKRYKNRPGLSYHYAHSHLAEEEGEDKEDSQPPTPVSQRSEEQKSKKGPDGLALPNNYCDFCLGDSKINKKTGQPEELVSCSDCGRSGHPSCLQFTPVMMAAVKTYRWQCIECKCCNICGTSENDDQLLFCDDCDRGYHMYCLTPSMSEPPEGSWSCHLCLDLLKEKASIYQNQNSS
# UniProt P51531: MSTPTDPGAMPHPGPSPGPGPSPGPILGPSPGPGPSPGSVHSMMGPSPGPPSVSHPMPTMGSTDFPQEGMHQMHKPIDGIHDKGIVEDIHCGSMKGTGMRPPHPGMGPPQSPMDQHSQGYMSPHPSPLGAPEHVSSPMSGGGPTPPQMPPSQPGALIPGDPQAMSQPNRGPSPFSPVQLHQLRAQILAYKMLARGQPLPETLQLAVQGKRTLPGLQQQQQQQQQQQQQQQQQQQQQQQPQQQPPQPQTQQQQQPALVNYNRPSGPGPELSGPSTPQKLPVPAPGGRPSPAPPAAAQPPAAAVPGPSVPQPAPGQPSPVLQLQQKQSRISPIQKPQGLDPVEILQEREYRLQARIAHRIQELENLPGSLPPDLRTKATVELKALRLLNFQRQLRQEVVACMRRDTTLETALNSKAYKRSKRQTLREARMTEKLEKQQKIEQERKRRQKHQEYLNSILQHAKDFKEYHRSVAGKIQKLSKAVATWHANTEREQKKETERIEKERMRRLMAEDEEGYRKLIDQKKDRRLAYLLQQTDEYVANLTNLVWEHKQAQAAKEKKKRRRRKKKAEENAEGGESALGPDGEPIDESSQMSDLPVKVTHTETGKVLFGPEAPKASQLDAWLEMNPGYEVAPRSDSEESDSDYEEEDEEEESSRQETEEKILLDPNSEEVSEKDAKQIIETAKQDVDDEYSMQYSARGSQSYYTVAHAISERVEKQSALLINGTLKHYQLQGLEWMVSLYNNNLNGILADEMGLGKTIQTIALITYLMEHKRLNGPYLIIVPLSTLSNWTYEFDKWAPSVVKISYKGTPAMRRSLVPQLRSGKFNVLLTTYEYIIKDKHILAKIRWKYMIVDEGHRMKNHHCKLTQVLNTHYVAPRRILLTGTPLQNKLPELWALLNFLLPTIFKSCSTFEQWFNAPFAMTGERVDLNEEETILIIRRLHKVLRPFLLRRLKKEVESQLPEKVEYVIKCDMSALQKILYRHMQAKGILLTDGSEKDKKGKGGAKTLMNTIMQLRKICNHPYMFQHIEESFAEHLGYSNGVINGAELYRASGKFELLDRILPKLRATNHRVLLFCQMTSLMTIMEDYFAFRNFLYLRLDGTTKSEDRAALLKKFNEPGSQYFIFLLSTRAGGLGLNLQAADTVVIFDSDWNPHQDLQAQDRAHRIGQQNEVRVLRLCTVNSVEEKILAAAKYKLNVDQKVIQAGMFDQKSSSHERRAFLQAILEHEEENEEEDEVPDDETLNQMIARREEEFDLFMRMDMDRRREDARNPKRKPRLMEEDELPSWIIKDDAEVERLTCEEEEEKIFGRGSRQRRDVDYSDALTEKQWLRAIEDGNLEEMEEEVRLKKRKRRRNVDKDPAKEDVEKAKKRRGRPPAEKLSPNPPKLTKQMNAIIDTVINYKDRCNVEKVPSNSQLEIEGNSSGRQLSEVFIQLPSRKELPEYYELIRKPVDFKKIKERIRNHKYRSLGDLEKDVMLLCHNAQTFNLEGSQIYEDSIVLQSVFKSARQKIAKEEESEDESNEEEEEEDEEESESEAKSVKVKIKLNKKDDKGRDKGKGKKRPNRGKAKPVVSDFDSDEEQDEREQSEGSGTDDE
# UniProt P51532: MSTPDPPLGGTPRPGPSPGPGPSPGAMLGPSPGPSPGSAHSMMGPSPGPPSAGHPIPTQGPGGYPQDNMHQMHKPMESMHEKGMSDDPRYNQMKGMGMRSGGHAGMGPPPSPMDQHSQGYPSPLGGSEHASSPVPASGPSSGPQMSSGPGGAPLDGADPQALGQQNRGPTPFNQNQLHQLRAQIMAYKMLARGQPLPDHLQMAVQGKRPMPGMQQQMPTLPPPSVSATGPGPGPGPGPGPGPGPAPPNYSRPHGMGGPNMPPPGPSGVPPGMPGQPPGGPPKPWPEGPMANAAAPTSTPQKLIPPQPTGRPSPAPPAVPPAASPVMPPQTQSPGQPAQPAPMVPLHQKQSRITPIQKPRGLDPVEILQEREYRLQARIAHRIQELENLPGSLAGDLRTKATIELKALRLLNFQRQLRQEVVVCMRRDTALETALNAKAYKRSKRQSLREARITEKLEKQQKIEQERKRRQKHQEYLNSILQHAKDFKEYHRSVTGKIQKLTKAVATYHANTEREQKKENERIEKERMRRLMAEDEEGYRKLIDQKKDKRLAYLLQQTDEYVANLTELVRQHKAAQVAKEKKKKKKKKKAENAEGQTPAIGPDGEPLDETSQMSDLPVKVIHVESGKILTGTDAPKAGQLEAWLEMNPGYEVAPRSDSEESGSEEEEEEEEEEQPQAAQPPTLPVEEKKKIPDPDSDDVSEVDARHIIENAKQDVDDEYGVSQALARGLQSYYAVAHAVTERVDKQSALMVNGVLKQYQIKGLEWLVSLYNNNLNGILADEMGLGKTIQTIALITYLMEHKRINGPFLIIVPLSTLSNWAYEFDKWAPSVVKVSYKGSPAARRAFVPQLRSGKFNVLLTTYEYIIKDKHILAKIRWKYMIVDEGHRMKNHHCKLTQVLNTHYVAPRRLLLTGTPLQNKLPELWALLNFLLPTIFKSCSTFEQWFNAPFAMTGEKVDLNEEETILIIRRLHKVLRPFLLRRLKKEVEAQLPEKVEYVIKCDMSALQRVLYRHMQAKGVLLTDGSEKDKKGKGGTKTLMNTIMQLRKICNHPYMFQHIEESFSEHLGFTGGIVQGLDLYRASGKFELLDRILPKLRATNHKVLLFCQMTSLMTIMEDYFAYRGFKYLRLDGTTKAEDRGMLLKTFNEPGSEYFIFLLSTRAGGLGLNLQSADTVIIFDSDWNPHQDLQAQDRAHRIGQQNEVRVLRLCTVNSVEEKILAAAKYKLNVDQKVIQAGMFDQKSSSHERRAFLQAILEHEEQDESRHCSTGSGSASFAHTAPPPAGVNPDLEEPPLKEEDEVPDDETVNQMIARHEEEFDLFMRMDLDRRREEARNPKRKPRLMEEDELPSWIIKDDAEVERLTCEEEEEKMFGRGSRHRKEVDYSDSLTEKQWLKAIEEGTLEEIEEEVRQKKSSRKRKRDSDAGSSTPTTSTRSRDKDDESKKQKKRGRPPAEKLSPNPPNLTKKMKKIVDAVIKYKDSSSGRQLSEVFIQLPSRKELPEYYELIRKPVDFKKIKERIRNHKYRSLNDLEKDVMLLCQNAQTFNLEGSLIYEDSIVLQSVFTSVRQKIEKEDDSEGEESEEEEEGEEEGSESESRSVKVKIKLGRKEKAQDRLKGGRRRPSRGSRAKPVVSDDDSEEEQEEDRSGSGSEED
# UniProt Q8TAQ2: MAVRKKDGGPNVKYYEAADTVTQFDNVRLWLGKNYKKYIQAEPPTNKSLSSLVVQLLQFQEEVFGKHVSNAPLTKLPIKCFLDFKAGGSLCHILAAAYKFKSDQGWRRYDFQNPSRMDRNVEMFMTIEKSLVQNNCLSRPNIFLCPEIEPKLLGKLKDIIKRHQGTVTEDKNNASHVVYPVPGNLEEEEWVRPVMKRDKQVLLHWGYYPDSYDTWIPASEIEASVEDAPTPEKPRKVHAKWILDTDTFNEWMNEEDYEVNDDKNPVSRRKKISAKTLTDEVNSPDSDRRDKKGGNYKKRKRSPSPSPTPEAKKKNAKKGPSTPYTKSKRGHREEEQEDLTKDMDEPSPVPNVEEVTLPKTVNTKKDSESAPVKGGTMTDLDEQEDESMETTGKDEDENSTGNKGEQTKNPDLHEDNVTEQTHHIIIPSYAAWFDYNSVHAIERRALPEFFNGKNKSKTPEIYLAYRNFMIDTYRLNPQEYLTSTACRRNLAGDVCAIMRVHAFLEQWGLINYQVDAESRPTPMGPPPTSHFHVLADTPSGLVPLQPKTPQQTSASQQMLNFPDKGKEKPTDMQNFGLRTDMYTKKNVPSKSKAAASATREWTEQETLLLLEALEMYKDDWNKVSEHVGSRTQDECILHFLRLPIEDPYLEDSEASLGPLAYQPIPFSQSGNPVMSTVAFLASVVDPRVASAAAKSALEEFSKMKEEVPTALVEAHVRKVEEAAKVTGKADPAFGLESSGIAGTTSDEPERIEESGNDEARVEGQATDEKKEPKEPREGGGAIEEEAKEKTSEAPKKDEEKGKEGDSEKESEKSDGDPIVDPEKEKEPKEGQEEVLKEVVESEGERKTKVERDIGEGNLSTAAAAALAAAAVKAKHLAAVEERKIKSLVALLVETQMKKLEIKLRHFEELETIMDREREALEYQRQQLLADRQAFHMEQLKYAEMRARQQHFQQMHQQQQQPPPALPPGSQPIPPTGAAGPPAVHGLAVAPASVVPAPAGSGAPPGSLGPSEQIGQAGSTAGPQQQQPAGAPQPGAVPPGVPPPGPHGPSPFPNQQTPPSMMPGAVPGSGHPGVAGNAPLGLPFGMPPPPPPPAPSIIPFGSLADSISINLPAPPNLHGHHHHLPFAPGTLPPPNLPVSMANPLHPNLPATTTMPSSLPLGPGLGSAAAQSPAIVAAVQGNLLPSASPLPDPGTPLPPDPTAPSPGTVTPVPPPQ
# UniProt Q96GM5: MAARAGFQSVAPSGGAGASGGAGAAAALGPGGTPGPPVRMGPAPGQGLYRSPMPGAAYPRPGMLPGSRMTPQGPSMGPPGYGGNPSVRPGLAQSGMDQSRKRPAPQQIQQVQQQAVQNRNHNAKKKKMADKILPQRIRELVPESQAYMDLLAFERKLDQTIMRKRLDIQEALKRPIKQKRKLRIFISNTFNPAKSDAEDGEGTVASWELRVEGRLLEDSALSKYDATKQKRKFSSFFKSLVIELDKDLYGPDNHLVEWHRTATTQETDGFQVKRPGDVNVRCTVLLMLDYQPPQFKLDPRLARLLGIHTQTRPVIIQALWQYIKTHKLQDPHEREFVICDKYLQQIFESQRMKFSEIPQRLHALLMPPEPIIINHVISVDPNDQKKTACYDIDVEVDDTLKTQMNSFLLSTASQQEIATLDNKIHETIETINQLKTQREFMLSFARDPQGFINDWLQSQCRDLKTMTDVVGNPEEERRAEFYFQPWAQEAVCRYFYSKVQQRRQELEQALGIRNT
# UniProt Q92925: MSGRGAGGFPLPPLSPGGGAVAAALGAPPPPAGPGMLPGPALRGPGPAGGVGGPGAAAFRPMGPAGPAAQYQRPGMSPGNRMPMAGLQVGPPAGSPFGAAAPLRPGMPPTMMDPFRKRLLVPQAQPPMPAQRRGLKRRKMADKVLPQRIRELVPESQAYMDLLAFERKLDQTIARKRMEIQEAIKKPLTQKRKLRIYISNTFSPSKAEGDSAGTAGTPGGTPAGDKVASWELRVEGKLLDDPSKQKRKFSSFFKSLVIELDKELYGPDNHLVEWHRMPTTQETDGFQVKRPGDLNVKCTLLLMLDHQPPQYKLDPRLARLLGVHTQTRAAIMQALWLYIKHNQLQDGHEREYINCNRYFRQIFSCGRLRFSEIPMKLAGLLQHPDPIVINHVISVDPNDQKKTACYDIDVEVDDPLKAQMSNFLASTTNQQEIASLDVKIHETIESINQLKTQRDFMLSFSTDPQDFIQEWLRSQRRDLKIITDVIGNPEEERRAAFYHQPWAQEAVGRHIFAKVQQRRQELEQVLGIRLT
# UniProt Q969G3: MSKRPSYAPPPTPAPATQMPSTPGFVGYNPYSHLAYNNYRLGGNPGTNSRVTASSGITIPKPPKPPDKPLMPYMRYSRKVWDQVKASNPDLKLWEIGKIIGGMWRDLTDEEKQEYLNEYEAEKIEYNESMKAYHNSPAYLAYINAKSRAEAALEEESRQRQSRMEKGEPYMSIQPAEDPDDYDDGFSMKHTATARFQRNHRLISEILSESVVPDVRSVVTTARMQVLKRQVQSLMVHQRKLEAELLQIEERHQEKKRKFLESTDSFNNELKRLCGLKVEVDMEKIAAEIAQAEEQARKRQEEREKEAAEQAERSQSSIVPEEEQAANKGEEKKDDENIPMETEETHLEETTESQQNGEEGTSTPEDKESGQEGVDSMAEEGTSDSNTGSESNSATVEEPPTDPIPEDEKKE
# Results are given in words; binding and its absence hold for the method and conditions named. Binding seen in cells or lysates may run through a third protein. A yes stands for co-enrichment or nearness to the bait. Other partners may have been found.
# Target: survivin (human (endogenous in THP-1)) (UniProt O15392)
# Assay: affinity purification with mass spectrometry; anti-survivin antibodies (RnD AF886) on Protein G Dynabeads cross-linked with BS3, control rabbit IgG; THP-1 cells lysed in modified RIPA buffer (25 mM Tris-HCl pH 7.4, 200 mM NaCl, 1 mM EDTA, 1% Nonidet P-40, 5% glycerol); washes with buffer containing 0.1% SDS; Coomassie-stained gel bands digested and analysed by LC-MS/MS; two independent experiments
row,Substance,binding
1,DPF2 (from UniProt Q92785 1-391),binds
2,PBRM1 (from UniProt Q86U86 1-1689),binds
3,SMARCA2 (from UniProt P51531 1-1590),binds
4,SMARCA4 (from UniProt P51532 1-1647),binds
5,SMARCC1 (from UniProt Q92922 1-1105),binds
6,SMARCC2 (from UniProt Q8TAQ2 1-1214),binds
7,SMARCD1 (from UniProt Q96GM5 1-515),binds
8,SMARCD2 (from UniProt Q92925 1-531),binds
9,SMARCE1 (from UniProt Q969G3 1-411),binds
